In the supplement of paper PMC10849652:
This is one part of the list.

Sequences of proteins named here, by UniProt entry; tags and fusion partners are left off. A change or cut given only in a name is not applied to a line headed by its entry.
UniProt Q9UN37: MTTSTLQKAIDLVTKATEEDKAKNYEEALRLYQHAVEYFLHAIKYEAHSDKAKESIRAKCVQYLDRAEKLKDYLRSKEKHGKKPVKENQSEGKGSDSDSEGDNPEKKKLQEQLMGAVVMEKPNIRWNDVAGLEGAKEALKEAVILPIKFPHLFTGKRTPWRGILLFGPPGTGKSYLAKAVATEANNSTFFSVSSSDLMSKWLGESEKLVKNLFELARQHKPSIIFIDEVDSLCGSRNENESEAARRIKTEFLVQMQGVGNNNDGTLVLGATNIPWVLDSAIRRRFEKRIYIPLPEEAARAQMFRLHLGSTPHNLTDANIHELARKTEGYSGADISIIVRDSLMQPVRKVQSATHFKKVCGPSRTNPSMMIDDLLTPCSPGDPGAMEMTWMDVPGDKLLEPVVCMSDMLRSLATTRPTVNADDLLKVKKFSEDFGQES
UniProt Q6VEQ5: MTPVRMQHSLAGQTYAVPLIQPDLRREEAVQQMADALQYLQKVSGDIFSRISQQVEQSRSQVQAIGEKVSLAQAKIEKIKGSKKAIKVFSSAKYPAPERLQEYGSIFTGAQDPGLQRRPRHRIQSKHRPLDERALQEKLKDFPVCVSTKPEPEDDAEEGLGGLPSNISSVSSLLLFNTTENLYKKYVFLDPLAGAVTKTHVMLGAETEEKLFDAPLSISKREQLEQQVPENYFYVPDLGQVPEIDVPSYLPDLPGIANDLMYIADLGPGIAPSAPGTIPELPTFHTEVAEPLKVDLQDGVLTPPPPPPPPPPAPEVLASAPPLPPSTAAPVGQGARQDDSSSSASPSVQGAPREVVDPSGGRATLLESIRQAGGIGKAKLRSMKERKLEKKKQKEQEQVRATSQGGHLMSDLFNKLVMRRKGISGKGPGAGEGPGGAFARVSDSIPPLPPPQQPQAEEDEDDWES
UniProt Q6AWC2, whole entry, looked up: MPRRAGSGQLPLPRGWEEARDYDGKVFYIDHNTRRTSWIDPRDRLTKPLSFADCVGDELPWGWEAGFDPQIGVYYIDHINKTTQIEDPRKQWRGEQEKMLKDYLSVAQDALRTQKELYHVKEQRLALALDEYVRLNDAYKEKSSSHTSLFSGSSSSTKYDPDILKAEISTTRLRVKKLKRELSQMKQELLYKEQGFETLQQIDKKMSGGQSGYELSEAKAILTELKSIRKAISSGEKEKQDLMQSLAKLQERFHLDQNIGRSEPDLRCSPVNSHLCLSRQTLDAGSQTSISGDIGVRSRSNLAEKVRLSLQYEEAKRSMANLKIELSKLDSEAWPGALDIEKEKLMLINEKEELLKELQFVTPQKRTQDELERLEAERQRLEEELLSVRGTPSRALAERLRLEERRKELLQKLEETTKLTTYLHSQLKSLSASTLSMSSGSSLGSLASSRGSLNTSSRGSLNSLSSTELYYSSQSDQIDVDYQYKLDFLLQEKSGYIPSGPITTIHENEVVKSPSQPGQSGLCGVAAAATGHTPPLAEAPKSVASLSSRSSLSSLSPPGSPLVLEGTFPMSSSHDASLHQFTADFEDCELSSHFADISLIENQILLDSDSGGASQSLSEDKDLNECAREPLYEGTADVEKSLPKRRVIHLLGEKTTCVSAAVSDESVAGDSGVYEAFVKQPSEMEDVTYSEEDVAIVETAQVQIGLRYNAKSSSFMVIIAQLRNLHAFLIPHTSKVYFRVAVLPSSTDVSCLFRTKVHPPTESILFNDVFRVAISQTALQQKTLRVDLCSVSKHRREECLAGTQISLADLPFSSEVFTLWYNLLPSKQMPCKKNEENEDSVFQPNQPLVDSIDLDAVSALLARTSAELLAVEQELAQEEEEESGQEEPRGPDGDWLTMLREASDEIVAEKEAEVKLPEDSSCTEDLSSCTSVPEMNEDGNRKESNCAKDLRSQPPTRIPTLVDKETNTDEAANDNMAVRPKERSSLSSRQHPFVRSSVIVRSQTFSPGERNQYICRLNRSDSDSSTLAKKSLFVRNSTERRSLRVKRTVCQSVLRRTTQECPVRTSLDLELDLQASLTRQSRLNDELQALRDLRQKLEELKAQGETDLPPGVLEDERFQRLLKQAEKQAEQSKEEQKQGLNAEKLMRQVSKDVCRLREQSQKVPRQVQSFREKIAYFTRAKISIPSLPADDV
UniProt Q9P2S5: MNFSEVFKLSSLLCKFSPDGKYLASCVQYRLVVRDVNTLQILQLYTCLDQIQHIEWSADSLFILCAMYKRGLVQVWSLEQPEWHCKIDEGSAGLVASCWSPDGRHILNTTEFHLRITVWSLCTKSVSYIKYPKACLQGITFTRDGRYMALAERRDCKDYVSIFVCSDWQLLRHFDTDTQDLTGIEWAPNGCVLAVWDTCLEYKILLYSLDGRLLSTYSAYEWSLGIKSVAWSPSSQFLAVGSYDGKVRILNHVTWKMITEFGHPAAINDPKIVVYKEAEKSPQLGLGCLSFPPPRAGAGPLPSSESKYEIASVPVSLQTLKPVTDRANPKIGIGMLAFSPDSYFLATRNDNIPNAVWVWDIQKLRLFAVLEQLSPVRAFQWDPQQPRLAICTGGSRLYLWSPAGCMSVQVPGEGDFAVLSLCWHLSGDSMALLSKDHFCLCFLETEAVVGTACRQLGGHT
UniProt Q9Y484: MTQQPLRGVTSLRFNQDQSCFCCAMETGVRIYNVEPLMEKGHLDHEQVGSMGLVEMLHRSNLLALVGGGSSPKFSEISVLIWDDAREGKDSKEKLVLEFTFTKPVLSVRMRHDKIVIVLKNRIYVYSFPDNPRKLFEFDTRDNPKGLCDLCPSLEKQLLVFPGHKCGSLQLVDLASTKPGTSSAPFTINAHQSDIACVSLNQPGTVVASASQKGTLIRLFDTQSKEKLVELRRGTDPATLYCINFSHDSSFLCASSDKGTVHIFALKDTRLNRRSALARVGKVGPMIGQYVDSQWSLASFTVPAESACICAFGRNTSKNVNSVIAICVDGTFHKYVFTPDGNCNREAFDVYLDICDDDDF
UniProt Q5VIR6: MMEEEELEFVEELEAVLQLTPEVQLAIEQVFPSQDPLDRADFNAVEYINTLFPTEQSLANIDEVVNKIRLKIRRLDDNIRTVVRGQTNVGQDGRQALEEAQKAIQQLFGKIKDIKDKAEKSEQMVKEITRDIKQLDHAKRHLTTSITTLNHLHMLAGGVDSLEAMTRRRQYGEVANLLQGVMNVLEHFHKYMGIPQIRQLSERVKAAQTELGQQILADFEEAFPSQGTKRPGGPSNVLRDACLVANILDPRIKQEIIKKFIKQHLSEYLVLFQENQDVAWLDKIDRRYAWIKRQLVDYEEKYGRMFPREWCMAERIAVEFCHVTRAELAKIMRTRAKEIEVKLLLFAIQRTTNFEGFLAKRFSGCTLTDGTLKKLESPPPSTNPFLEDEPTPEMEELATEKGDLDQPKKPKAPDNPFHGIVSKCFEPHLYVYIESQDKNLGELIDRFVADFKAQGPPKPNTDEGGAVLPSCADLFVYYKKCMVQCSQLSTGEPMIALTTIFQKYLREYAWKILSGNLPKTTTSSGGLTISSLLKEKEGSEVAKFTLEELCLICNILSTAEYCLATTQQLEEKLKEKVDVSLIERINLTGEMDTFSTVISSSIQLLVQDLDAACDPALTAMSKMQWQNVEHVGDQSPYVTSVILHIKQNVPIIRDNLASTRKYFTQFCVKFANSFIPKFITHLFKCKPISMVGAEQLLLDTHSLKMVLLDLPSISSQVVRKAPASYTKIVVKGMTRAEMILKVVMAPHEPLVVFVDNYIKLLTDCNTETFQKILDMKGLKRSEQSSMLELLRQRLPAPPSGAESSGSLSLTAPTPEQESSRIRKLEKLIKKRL
UniProt Q6PJI9: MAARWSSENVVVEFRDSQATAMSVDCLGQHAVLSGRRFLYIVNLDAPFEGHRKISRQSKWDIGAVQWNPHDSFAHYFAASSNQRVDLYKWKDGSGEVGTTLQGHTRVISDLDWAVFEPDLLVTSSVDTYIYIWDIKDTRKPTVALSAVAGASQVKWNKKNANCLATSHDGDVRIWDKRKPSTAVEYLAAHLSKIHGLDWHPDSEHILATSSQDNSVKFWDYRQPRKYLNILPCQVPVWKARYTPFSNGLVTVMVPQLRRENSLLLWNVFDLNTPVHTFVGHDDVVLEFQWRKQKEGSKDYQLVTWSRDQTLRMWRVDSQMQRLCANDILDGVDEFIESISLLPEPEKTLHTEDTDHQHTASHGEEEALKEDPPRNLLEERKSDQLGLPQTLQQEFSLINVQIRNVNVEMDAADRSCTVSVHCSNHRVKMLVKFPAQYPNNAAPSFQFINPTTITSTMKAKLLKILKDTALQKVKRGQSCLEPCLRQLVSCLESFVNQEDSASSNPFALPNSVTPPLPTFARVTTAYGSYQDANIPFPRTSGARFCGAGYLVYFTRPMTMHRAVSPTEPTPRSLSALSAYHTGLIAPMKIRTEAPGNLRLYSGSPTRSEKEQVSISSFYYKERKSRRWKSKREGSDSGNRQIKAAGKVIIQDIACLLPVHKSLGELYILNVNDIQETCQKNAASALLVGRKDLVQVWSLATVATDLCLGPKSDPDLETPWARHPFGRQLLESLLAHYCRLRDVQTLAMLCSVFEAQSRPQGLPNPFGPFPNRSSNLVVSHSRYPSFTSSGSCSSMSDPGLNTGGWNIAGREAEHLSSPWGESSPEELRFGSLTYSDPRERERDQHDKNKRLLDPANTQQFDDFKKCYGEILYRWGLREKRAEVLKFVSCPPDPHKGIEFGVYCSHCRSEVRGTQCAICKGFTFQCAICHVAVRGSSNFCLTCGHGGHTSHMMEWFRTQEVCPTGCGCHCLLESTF
UniProt Q8N1B4: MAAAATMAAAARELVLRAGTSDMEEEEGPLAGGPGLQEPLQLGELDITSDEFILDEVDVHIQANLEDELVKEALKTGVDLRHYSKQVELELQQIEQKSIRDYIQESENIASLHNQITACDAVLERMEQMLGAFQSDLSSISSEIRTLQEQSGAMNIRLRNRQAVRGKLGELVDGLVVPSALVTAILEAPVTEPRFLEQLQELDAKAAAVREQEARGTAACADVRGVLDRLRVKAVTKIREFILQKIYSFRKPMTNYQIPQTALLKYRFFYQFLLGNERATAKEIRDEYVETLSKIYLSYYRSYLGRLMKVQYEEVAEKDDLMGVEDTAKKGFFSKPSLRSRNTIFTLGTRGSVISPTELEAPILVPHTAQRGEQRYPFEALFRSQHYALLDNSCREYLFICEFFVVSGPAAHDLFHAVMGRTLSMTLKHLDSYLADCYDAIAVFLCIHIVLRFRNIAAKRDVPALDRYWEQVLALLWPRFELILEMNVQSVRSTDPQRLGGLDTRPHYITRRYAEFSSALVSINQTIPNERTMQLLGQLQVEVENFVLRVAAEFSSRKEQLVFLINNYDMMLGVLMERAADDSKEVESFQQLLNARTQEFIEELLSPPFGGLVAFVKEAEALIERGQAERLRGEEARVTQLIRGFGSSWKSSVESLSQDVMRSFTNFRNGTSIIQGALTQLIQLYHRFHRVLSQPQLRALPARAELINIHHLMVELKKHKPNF
UniProt Q8IWB7: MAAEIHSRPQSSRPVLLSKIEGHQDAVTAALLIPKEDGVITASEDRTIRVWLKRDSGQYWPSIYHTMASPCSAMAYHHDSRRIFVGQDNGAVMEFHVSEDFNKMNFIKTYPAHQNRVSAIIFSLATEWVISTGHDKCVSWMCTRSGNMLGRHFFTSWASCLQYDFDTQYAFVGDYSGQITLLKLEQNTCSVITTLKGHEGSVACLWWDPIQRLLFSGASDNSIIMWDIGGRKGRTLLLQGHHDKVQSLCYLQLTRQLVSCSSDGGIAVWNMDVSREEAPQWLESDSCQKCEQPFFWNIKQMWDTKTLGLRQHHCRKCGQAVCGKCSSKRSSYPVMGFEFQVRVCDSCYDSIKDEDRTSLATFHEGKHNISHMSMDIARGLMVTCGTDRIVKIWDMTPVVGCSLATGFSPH
UniProt Q96GC9: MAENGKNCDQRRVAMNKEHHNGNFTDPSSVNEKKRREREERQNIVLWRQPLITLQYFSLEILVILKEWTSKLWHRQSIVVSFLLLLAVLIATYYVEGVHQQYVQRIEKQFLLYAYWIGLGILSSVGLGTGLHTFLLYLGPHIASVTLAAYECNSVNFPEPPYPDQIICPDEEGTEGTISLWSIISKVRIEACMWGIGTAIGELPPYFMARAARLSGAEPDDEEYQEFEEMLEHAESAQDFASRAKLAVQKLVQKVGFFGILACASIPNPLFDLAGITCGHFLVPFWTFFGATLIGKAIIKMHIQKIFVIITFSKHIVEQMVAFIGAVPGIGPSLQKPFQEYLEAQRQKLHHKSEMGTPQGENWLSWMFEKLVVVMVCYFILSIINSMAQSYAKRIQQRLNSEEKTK

Legend:
Test in all cases: log2 fold change, soluble protein after heating vs DMSO (PISA); higher = thermal stabilisation; K562 lysate, 10 uM; active = over 0.2 and 3.5 SD of the protein, either way, in both replicates (recomputed)
lapatinib = compound: CS(=O)(=O)CCNCc1ccc(-c2ccc3ncnc(Nc4ccc(OCc5cccc(F)c5)c(Cl)c4)c3c2)o1 [lapatinib]
Method in brief: (§1)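 Dounce homogenisation of K562 pellets in PBS pH 7.4 with 1 mM MgCl2 produced a crude extract, used at 1 mg/mL protein. Exposure to 10 μM compound lasted 30 min, and aliquots were then heated for 3 min across 48°C-58°C, pooled and brought to 0.5% NP-40 at 4°C. The supernatant after 21,000xg for 90 min was quantified by TMTpro 16plex LC-MS/MS with channel sums equalised. Duplicate values are given as log-two fold change in thermal stability relative to solvent controls.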

pictilisib = compound: CS(=O)(=O)N1CCN(Cc2cc3nc(-c4cccc5[nH]ncc45)nc(N4CCOCC4)c3s2)CC1 [pictilisib]
Method in brief: as §1

crizotinib = compound: C[C@@H](Oc1cc(-c2cnn(C3CCNCC3)c2)cnc1N)c1c(Cl)ccc(F)c1Cl [crizotinib]
Method in brief: as §1

[1] = compound: C[C@H](C1=CC=C(C=C1)C(=O)NC2=C3C=CNC3=NC=C2)N
Method in brief: as §1

duvelisib = compound: C[C@H](Nc1ncnc2nc[nH]c12)c1cc2cccc(Cl)c2c(=O)n1-c1ccccc1 [duvelisib]
Method in brief: as §1

gandotinib = compound: Cc1cc(Nc2cc(CN3CCOCC3)c3nc(C)c(Cc4ccc(Cl)cc4F)n3n2)n[nH]1 [gandotinib]
Method in brief: as §1

tozasertib = compound: Cc1cc(Nc2cc(N3CCN(C)CC3)nc(Sc3ccc(NC(=O)C4CC4)cc3)n2)n[nH]1 [tozasertib]
Method in brief: as §1

doramapimod = compound: Cc1ccc(-n2nc(C(C)(C)C)cc2NC(=O)Nc2ccc(OCCN3CCOCC3)c3ccccc23)cc1 [doramapimod]
Method in brief: as §1

bafetinib = compound: Cc1ccc(NC(=O)c2ccc(CN3CC[C@H](N(C)C)C3)c(C(F)(F)F)c2)cc1Nc1nccc(-c2cncnc2)n1 [bafetinib]
Method in brief: as §1

[2] = compound: Cc1cccc(CC(=O)N2CCc3c2ccc(-c2cn(C)c4ncnc(N)c24)c3F)n1
Method in brief: as §1

nilotinib = compound: Cc1cn(-c2cc(NC(=O)c3ccc(C)c(Nc4nccc(-c5cccnc5)n4)c3)cc(C(F)(F)F)c2)cn1 [nilotinib]
Method in brief: as §1

[3] = compound: Cc1nc(Nc2n[nH]c3c2CN(C(=O)N[C@H](CN(C)C)c2ccccc2)C3(C)C)c2sccc2n1
Method in brief: as §1

dasatinib = compound: Cc1nc(Nc2ncc(C(=O)Nc3c(C)cccc3Cl)s2)cc(N2CCN(CCO)CC2)n1 [dasatinib]
Method in brief: as §1

[4] = compound: Cc1ncc(-c2ccnc(Nc3ccc(S(C)(=O)=O)cc3)n2)n1C(C)C
Method in brief: as §1

[5] = compound: Cn1cc(-c2ccc3c(c2)CCN3C(=O)Cc2cccc(C(F)(F)F)c2)c2c(N)ncnc21
Method in brief: as §1

quisinostat = compound: Cn1cc(CNCC2CCN(c3ncc(C(=O)NO)cn3)CC2)c2ccccc21 [quisinostat]
Method in brief: as §1

tipifarnib = compound: Cn1cncc1[C@@](N)(c1ccc(Cl)cc1)c1ccc2c(c1)c(-c1cccc(Cl)c1)cc(=O)n2C [tipifarnib]
Method in brief: as §1

[6] = compound: NC(=O)Nc1cc(-c2cccc(F)c2)sc1C(=O)N[C@H]1CCCNC1
Method in brief: as §1

[7] = compound: NC(=O)c1cnc(N[C@@H]2CCCC[C@@H]2N)nc1Nc1cccc(-n2nccn2)c1
Method in brief: as §1

[8] = compound: NC1(c2ccc(-c3nc4ccn5c(=O)[nH]nc5c4cc3-c3ccccc3)cc2)CCC1
Method in brief: as §1

Measured: log2 fold change

VPS4A (UniProt Q9UN37)
inactive: lapatinib 0.003 | pictilisib -0.034 | crizotinib -0.034 | [1] -0.042 | duvelisib -0.012 | gandotinib -0.066 | tozasertib 0.007 | doramapimod 0.038 | bafetinib 0.004 | [2] 0.056 | nilotinib -0.011 | [3] 0.008 | dasatinib -0.075 | [4] 0.002 | [5] 0.056 | quisinostat -0.027 | tipifarnib 0.023 | [6] 0.019 | [7] 0.004 | [8] -0.011

WNK1 isoform 7 (UniProt Q9H4A3)
inactive: lapatinib -0.014 | pictilisib -0.02 | crizotinib 0.019 | [1] 0.018 | duvelisib -0.036 | gandotinib -0.031 | tozasertib 0.036 | doramapimod 0.009 | bafetinib -0.025 | [2] 0.005 | nilotinib 0.019 | [3] -0.011 | dasatinib 0.084 | [4] 0.004 | [5] 0.061 | quisinostat -0.031 | tipifarnib 0.006 | [6] 0.009 | [7] 0.007 | [8] -0.005

VPS26C (UniProt O14972)
inactive: lapatinib -0.017 | pictilisib -0.012 | crizotinib -0.059 | [1] -0.167 | duvelisib 0.215 | gandotinib 0.001 | tozasertib 0.023 | doramapimod 0.086 | bafetinib -0.156 | [2] 0.064 | nilotinib -0.043 | [3] -0.015 | dasatinib -0.117 | [4] 0.016 | [5] 0.096 | quisinostat -0.12 | tipifarnib 0.08 | [6] 0.037 | [7] 0.019 | [8] -0.019

WASH2P (UniProt Q6VEQ5)
inactive: lapatinib -0.022 | pictilisib -0.074 | crizotinib -0.003 | [1] 0.016 | duvelisib -0.008 | gandotinib 0.016 | tozasertib 0.068 | doramapimod -0.013 | bafetinib -0.062 | [2] -0.046 | nilotinib 0.062 | [3] -0.015 | dasatinib 0.012 | [4] 0.037 | [5] 0.045 | quisinostat 0.013 | tipifarnib -0.042 | [6] -0.005 | [7] 0.037 | [8] -0.001

WWC2 isoform 6 (UniProt Q6AWC2)
inactive: lapatinib -0.076 | pictilisib 0.052 | crizotinib -0.055 | [1] 0.054 | duvelisib 0.062 | gandotinib -0.071 | tozasertib 0.095 | doramapimod 0.073 | bafetinib -0.034 | [2] 0.045 | nilotinib 0.046 | [3] -0.032 | dasatinib 0.05 | [4] 0.044 | [5] 0.037 | quisinostat -0.023 | tipifarnib -0.037 | [6] -0.003 | [7] 0.057 | [8] 0.022

WDR43 (UniProt Q15061)
inactive: lapatinib 0.022 | pictilisib 0.009 | crizotinib -0.012 | [1] -0.045 | duvelisib -0.033 | gandotinib 0.007 | tozasertib 0.017 | doramapimod 0.059 | bafetinib -0.023 | [2] 0.061 | nilotinib 0.025 | [3] 0.018 | dasatinib -0.017 | [4] -0.004 | [5] -0.022 | quisinostat -0.025 | tipifarnib -0.015 | [6] 0.03 | [7] -0.017 | [8] 0.019

WRAP73 (UniProt Q9P2S5)
inactive: lapatinib 0.003 | pictilisib -0.071 | crizotinib -0.07 | [1] -0.067 | duvelisib -0.075 | gandotinib 0.063 | tozasertib 0.014 | doramapimod 0.021 | bafetinib -0.043 | [2] 0 | nilotinib 0.017 | [3] 0.145 | dasatinib 0.15 | [4] -0.003 | [5] 0.076 | quisinostat -0.053 | tipifarnib -0.021 | [6] 0.029 | [7] -0.019 | [8] 0.071

WDR73 (UniProt Q6P4I2)
inactive: lapatinib -0.027 | pictilisib -0.043 | crizotinib 0.032 | [1] -0.011 | duvelisib -0.017 | gandotinib -0.011 | tozasertib 0.011 | doramapimod 0.02 | bafetinib -0.024 | [2] -0.015 | nilotinib 0.037 | [3] -0.022 | dasatinib 0.013 | [4] -0.058 | [5] 0 | quisinostat -0.004 | tipifarnib 0.015 | [6] 0.011 | [7] 0.018 | [8] -0.019

WDR45 isoform 2 (UniProt Q9Y484)
inactive: lapatinib -0.002 | pictilisib -0.011 | crizotinib -0.048 | duvelisib -0.04 | gandotinib -0.051 | tozasertib -0.025 | doramapimod 0.054 | bafetinib -0.047 | [2] 0.179 | nilotinib 0.04 | [3] -0.01 | dasatinib -0.085 | [4] -0.027 | [5] 0.049 | quisinostat 0.06 | tipifarnib 0.009 | [6] 0.013 | [7] -0.042 | [8] -0.028
active: [1] -0.229

VPS53 isoform 4 (UniProt Q5VIR6)
inactive: lapatinib -0.015 | pictilisib -0.005 | crizotinib -0.057 | [1] -0.001 | duvelisib 0.018 | gandotinib -0.097 | tozasertib 0.001 | doramapimod 0.016 | bafetinib 0.003 | [2] 0.003 | nilotinib -0.013 | [3] -0.015 | dasatinib -0.063 | [4] -0.004 | [5] 0.026 | quisinostat 0.003 | tipifarnib -0.019 | [6] 0.005 | [7] 0.006 | [8] -0.005

WDR59 (UniProt Q6PJI9)
inactive: lapatinib 0.01 | pictilisib -0.021 | crizotinib -0.021 | [1] -0.043 | duvelisib 0.024 | gandotinib -0.05 | tozasertib -0.041 | doramapimod 0 | bafetinib 0.012 | [2] 0.002 | nilotinib -0.009 | [3] -0.057 | dasatinib -0.001 | [4] 0.029 | [5] 0 | quisinostat -0.07 | tipifarnib 0.01 | [6] 0.061 | [7] 0.019 | [8] -0.02

WRAP53 (UniProt Q9BUR4)
inactive: lapatinib 0.028 | pictilisib -0.065 | crizotinib -0.032 | [1] -0.022 | duvelisib 0.022 | gandotinib 0.025 | tozasertib 0.052 | doramapimod 0.007 | bafetinib -0.027 | [2] 0.089 | nilotinib -0.048 | [3] 0.039 | dasatinib 0.023 | [4] -0.029 | [5] -0.037 | quisinostat 0.011 | tipifarnib 0.081 | [6] 0.055 | [7] -0.019 | [8] -0.043

Two records picked at random from those above:
WDR59 (UniProt Q6PJI9)
inactive: lapatinib 0.01 | pictilisib -0.021 | crizotinib -0.021 | [1] -0.043 | duvelisib 0.024 | gandotinib -0.05 | tozasertib -0.041 | doramapimod 0 | bafetinib 0.012 | [2] 0.002 | nilotinib -0.009 | [3] -0.057 | dasatinib -0.001 | [4] 0.029 | [5] 0 | quisinostat -0.07 | tipifarnib 0.01 | [6] 0.061 | [7] 0.019 | [8] -0.02

VPS53 isoform 4 (UniProt Q5VIR6)
inactive: lapatinib -0.015 | pictilisib -0.005 | crizotinib -0.057 | [1] -0.001 | duvelisib 0.018 | gandotinib -0.097 | tozasertib 0.001 | doramapimod 0.016 | bafetinib 0.003 | [2] 0.003 | nilotinib -0.013 | [3] -0.015 | dasatinib -0.063 | [4] -0.004 | [5] 0.026 | quisinostat 0.003 | tipifarnib -0.019 | [6] 0.005 | [7] 0.006 | [8] -0.005

(further entries)

VPS52 (UniProt Q8N1B4)
inactive: lapatinib -0.032 | pictilisib 0.024 | crizotinib -0.025 | [1] -0.001 | duvelisib -0.013 | gandotinib -0.064 | tozasertib -0.022 | doramapimod -0.046 | bafetinib -0.063 | [2] 0.074 | nilotinib 0.052 | [3] -0.054 | dasatinib -0.033 | [4] 0.005 | [5] 0.062 | quisinostat 0.034 | tipifarnib -0.03 | [6] 0.026 | [7] 0.017 | [8] 0.037

WDFY1 (UniProt Q8IWB7)
inactive: lapatinib 0.035 | pictilisib 0.002 | crizotinib 0.012 | [1] -0.006 | duvelisib 0.079 | gandotinib 0.104 | tozasertib 0.003 | doramapimod 0.06 | bafetinib -0.007 | [2] 0.032 | nilotinib 0.017 | [3] 0.016 | dasatinib 0.042 | [4] -0.012 | [5] -0.052 | quisinostat 0 | tipifarnib -0.026 | [6] -0.021 | [7] 0.046 | [8] -0.026

VMP1 (UniProt Q96GC9)
inactive: lapatinib 0.014 | pictilisib -0.157 | crizotinib -0.048 | [1] -0.196 | duvelisib 0.055 | gandotinib 0.053 | tozasertib -0.004 | doramapimod 0.05 | bafetinib -0.059 | [2] 0.13 | nilotinib 0.001 | [3] 0.033 | dasatinib 0.009 | [4] -0.02 | [5] 0.002 | quisinostat -0.044 | tipifarnib -0.001 | [6] 0.114 | [7] -0.06 | [8] -0.08

WASHC3 (UniProt Q9Y3C0)
inactive: lapatinib 0.002 | pictilisib -0.002 | crizotinib 0.015 | [1] -0.014 | duvelisib 0.051 | gandotinib 0.029 | tozasertib -0.016 | doramapimod 0.002 | bafetinib 0.012 | [2] -0.003 | nilotinib 0.009 | [3] -0.051 | dasatinib -0.024 | [4] 0.043 | [5] -0.001 | quisinostat 0.008 | tipifarnib -0.008 | [6] -0.031 | [7] -0.001 | [8] -0.029
